{
  "source": "patent US20140296143A1",
  "about": "“Angiotensin-(1-7) As A Chemoprevention Agent” (Wake Forest Innovations, priority 2008, published 2014)",
  "origin": "cited, not measured here",
  "details": "11 patients with essential hypertension, 6 months of treatment, Luque 1996, cited from earlier work",
  "note": "Where two headings read alike, the source gives them in different places.",
  "data": [
    {"smiles": "C[C@H](CS)C(=O)N1CCC[C@H]1C(=O)O", "note": "[Captopril, reference compound]", "values": [
      {"measurement": "plasma Ang-(1-7) levels after treatment", "setting": "before 0.042±0.040", "result": "0.083 ± 0.079", "unit": "nM"},
      {"measurement": "plasma Ang-(1-7) levels after treatment", "setting": "before 38±36", "result": "7.49 ± 13.7", "unit": "pg/mL"}
    ]}
  ]
}
